One compound from patent US20060089318A1, “Inhibitors of adp-ribosyl transferases, cyclases, and hydrolases” (priority 2002, published 2006) can be followed below.

Chains of the proteins cited; added tags and fusions are not shown. Residues count along the entry.
UniProt P28907, 43-300 limits assumed: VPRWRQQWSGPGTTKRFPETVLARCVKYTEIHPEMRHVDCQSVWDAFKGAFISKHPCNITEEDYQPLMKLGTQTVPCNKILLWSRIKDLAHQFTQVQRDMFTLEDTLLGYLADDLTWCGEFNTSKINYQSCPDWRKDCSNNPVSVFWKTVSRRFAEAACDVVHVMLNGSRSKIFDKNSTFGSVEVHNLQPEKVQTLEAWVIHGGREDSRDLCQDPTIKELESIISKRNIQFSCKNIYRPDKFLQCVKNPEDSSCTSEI

This assay addresses human CD38 (Homo sapiens, UniProt P28907). Description: Competitive and slow-onset inhibition of CD38-catalyzed conversion of NGD+ to cGDPR (295 nm absorbance). The note with it: 19° C.; fit to slow-onset equation; listed as 2. It counts as biochemical. The procedure:
Determination of Ki and kon by competitive method. To 1 mL solutions of 50 mM potassium phosphate pH 7.2 and 100 μM NGD^+ containing, 50, 25, 12.5, and 6.25 and 0 μM inhibitor 1 was added 2 μL of 7 μM CD38. Reaction progress upon initiation by enzyme addition was monitored by measurement of […] absorbance. The initial slopes were used to determine the Ki value, and all points of the experiment were fit to the equation A(t)=vt+(b−v)(1−exp(−kt))/k+A0 where k is the observed rate constant, b is the initial rate, v is the final rate and A0 is the initial absorbance was used to evaluate kon.
Determination of Competitive Inhibition by Initial Rates: The inhibitors 1-3 were evaluated for inhibition of CD38 enzymatic activity using a spectrophotometric assay. CD38 catalyzes the conversion of NGD^+ to cyclic-GDP ribose (cGDPR, Scheme 4) and product formation can be monitored by 295 nm absorbance measurement. […]
Slow Phase Inhibition. […] The “slow-onset” absorbance curves could be fit using the equation At=vit+(vi−vf)(1−exp(−kt))/k+A0 where At is absorbance, vi is initial velocity, vf is final velocity, t is time in s, k is the rate of the slow onset process and A0 is absorbance of the sample at initial time. […] The rate constant for the slow phase could be obtained from the average value of k determined from the separate fits. […]

Certain results were filed several times, with different values. Only these are listed. There may be further records. The values listed for one entry do not match, cause unknown; dose, time, organism, isomer or construct need not be as stated for each record.

On to `Cc1cc(C(N)=O)c[n+]([C@H]2C[C@H](O)[C@@H](CO)O2)c1` [inhibitor 2, β-5-methyl-nicotinamide-2′-deoxyriboside], for which the “kon (rate constant of slow-onset phase of inhibition)” value was 0.0083±0.002 s^−1 and 0.008 s^−1.
